Test results as given in doi:10.1101/358176.
These are yes or no findings as the source states them, for the method shown. In cells and extracts the contact can be indirect. A yes stands for co-enrichment or nearness to the bait. Other partners may have been found.

Target: GFP-tagged gp83 of Kallithea virus (Kallithea virus)
Test: affinity purification with mass spectrometry

Row | Binder | binding
1 | Mlf (protein, UniProt Q9NKV0 1-376) MSLFGALMGDFDDDLGLMNNHMNHTMNAMNMQMRSMNRLMNSFMPDPFMQVSPFDQGFQQNALMERPQMPAMPAMGLFGMPMMPNFNRLLNADIGGNSGASFCQSTVMTMSSGPDGRPQIYQASTSTKTGPGGVRETRRTVQDSRTGVKKMAIGHHIGERAHIIEKEQDMRSGQLEERQEFINLEEGEAEQFDREFTSRASRGAVQSRHHAGGMQAIMPARPAAHTSTLTIEPVEDDDDDDDDCVIQEQQPVRSSAGRHYSSAPTAPQNSGNIATAAAPTPTSSPTTYDTSNGNNNNYVSSRRSYLRNGHGHSLATPRRPLRTPPSSPLATVSTSPSIHPHPYAANPRRQQRAVKHFHTEDEAASSYKAVKRGKKK | binds
2 | spz (spatzle), extracellular Toll ligand (ligand, UniProt P48607 26-326) KEYERIIKELFTITNDEGVVLFNTSADSAPFMPIPTQHDDPTQKQKQNQNQSPIPETNRHYHQYHSLIQPDQYFKVQRSPNGKLNLVFNDTFVSLQRTDTEVQSEQPIPPRHPSDTFVFPDSPIAKYRPPQSPARPLRNDTKEHNPCAKDESQHLRNFCTNVDDYPDLSGLTHKLKNNFAKFFSNDLQPTDVSSRVGGSDERFLCRSIRKLVYPKKGLRADDTWQLIVNNDEYKQAIQIEECEGADQPCDFAANFPQSYNPICKQHYTQQTLASIKSDGELDVVQNSFKIPSCCKCALKTG | binds
